Among the data in paper PMC9359538 are binding values, retold here.

For the experiment, the target named is T1, annexin A1 (human (endogenous in A549 and 293)) (UniProt P04083).
T1 sequence: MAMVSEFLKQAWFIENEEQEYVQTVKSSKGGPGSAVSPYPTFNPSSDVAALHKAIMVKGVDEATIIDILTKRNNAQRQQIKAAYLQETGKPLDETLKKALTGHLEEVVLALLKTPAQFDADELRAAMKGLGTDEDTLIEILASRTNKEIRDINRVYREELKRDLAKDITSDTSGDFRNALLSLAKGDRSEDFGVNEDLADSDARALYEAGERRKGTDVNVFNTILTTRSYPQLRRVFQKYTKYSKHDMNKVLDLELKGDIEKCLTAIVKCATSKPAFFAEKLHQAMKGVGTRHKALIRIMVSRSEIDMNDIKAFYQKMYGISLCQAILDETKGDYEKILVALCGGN
The experiment in a line: co-IP; lysates of 293 cells transfected with Flag-tagged gE constructs (48 h); IP with anti-Anx-A1 Ab; western blot for Flag. On the technique in general: In western blotting, separated proteins are transferred to a membrane and probed.

These are yes or no findings as the source states them, for the method shown. Binding seen in cells or lysates may run through a third protein. Binding can be weak; no strength is given.

For “Flag-tagged gE without the cytoplasmic tail (Δ447–550) (from UniProt P04488) (domain or fragment)”, the binding entry is listed as “binds”. As for “Flag-tagged gE without the extracellular domain (Δ1–421) (from UniProt P04488) (domain or fragment)”, the binding result is “no binding”.
